This assay has as its target T1, Relish, whole protein (~110 kDa) (Drosophila (endogenous in eye imaginal discs)) (UniProt Q94527).
T1 sequence: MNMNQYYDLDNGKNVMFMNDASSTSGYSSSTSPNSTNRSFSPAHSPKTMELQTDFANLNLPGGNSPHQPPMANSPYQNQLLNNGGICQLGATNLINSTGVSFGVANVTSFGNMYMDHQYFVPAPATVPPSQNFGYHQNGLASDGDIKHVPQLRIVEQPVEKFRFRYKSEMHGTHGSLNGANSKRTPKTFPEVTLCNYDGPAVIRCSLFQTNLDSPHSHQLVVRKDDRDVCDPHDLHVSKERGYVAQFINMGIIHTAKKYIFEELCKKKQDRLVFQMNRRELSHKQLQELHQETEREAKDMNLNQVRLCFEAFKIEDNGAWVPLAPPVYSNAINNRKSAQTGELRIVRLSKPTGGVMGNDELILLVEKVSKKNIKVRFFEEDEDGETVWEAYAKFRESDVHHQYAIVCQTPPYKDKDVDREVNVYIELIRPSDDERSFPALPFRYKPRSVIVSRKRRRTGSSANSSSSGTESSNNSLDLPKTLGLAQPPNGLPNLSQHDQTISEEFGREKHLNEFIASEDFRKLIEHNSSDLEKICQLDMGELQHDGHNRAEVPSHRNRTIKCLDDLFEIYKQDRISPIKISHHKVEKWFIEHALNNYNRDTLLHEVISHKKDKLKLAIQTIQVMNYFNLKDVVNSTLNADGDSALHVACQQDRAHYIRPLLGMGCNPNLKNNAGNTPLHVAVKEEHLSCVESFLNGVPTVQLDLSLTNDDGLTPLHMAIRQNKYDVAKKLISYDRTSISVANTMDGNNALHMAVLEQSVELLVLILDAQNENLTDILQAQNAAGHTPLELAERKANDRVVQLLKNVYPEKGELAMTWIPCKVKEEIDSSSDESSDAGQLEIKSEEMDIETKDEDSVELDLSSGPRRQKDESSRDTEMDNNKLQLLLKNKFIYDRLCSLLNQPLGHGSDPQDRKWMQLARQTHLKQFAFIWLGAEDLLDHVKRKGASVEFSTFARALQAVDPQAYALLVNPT
In words: co-IP; Relish precipitated with anti-Relish (IP2) from eye disc lysate of GMR-GAL4:UAS-127Q.HA third instar larvae; RIPA buffer, Protein G-Dynabeads, 4°C overnight; Western blot of the eluate.

Chains of the proteins cited; added tags and fusions are not shown.
UniProt P11147: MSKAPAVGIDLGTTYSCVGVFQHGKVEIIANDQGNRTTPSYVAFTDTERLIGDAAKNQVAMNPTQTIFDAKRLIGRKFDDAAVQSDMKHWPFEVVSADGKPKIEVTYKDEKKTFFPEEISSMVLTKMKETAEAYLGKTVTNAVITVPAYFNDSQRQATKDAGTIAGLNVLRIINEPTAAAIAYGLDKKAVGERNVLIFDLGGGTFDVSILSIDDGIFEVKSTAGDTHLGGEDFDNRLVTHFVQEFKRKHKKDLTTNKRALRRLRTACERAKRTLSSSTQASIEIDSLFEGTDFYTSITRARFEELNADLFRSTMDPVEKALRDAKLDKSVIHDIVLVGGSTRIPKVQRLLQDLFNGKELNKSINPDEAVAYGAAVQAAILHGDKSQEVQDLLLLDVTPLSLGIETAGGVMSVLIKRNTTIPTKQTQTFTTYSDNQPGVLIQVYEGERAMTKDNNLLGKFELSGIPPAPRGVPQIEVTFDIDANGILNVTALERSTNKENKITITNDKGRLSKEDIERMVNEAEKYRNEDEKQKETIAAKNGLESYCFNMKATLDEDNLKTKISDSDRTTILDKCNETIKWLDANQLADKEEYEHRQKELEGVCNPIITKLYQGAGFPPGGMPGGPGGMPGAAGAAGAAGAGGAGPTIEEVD

Results are given in words; binding and its absence hold for the method and conditions named. Binding seen in cells or lysates may run through a third protein. Some binding calls cover weakened binding; strength is not graded here.

In the case of “Hsc70 (heat shock cognate 70; Hsc70-4, the Drosophila homolog of human HSPA8) (from UniProt P11147 1-651)”, the binding result was “binds”.

Values taken from paper PMC9678916.
